Results deposited as PubChem BioAssay AID1259424 (University of Nebraska Medical Center, 2018).
The whole screen tested about 14,000 reagents; below is a part drawn at random. 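Higher correlation or smaller distance means closer resemblance to KSR1 loss; control wells, including KSR1 knockdowns, recur on many plates.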 Further read-outs or replicates are left out here. Reagent sequences are not shown. Not stated in the record: the time to read-out.

- Test: 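Find knockdowns that reproduce the expression shifts seen after KSR1 loss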 (primary screen)
- Cells: human HCT116 colon cancer cells
- Reagents: siRNA pool against human genes, 50 nM
- Read-out: 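Log2 levels of six mRNAs (branched-DNA multiplex), adjusted by two reference genes and the non-targeting median, then scored against the average KSR1 knockdown pattern as Pearson r and euclidean distance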
- Direction: mean correlation with KSR1 profile: higher = expression change more like KSR1 knockdown

Against TREH (trehalase), the values are mean correlation with KSR1 profile -0.321.
DNAJA2 (DnaJ heat shock protein family (Hsp40) member A2) scored mean correlation with KSR1 profile 0.141.
Against NCAM1 (neural cell adhesion molecule 1) the deposit lists mean correlation with KSR1 profile -0.0524.
After knock-down of CORO2A (coronin 2A) the results were mean correlation with KSR1 profile 0.0455.
CHN1 (chimerin 1) gave mean correlation with KSR1 profile -0.189.
With knock-down of ASGR2 (asialoglycoprotein receptor 2), the screen gave mean correlation with KSR1 profile -0.318.
Silencing of SLC12A1 gave: mean correlation with KSR1 profile 0.509.
MLST8 (MTOR associated protein MLST8) showed mean correlation with KSR1 profile -0.108.
SMAD6 (SMAD family member 6) scored mean correlation with KSR1 profile 0.394.
With knock-down of RGS3 (regulator of G protein signaling 3) the results were mean correlation with KSR1 profile 0.342.
Depletion of ZNF544 (zinc finger protein 544) gave: mean correlation with KSR1 profile -0.376.
Against HGF (hepatocyte growth factor), the entry reads mean correlation with KSR1 profile -0.594.
Knock-down of LINC00597 (long independently transcribed non-coding RNA 597) resulted in: mean correlation with KSR1 profile 0.197.
With knock-down of MFGE8 (milk fat globule EGF and factor V/VIII domain containing), the record shows mean correlation with KSR1 profile 0.39.
For APH1B (aph-1B gamma-secretase subunit) the deposit lists mean correlation with KSR1 profile 0.606.
With knock-down of PINK1 (PTEN induced kinase 1) the results were mean correlation with KSR1 profile 0.919.
For SEC61A1 (SEC61 translocon subunit alpha 1) the deposit lists mean correlation with KSR1 profile -0.0269.
After knock-down of SUZ12 (SUZ12 polycomb repressive complex 2 subunit), the record shows mean correlation with KSR1 profile 0.0366.

Quoted from the entries so far (3 entries):
ASGR2 (asialoglycoprotein receptor 2) | mean correlation with KSR1 profile: -0.318
SLC12A1 | mean correlation with KSR1 profile: 0.509
MLST8 (MTOR associated protein MLST8) | mean correlation with KSR1 profile: -0.108

The list goes on:
Knock-down of TFAP2C (transcription factor AP-2 gamma) gave: mean correlation with KSR1 profile 0.341.
After knock-down of HMCN1 (hemicentin 1), the screen gave mean correlation with KSR1 profile -0.135.
With knock-down of MAP2 (microtubule associated protein 2) the results were mean correlation with KSR1 profile -0.667.
After knock-down of APLP1 (amyloid beta precursor like protein 1) the results were mean correlation with KSR1 profile 0.547.
CCNC (cyclin C) showed mean correlation with KSR1 profile -0.00763.
Against CNGA2 (cyclic nucleotide gated channel subunit alpha 2), the values are mean correlation with KSR1 profile -0.434.
For GML (glycosylphosphatidylinositol anchored molecule like), the entry reads mean correlation with KSR1 profile -0.0921.
Silencing of SELE (selectin E) gave: mean correlation with KSR1 profile 0.784.
Knock-down of UNC13B (unc-13 homolog B) gave: mean correlation with KSR1 profile -0.703.
After knock-down of CAMK2G (calcium/calmodulin dependent protein kinase II gamma) the results were mean correlation with KSR1 profile 0.269.
